The results in this text go back to paper PMC12595865.

By UniProt entry, the sequences of proteins in these tests, tags left out.
UniProt P15090: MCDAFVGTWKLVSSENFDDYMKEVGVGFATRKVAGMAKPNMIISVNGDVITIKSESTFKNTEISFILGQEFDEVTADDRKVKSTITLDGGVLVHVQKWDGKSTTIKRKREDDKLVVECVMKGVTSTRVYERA

Results are given in words; binding and its absence hold for the method and conditions named. In cells and extracts the contact can be indirect. These calls come from enrichment with a bait or labelling near it, and not all partners need be listed.

For this test, the target named is FABP4 expressed from a plasmid in HEK293T cells (bait of the IP-mass spectrometry) (UniProt P15090). The test is described as follows: affinity purification with mass spectrometry; HEK293T cells transfected with a plasmid expressing FABP4 or a control vector; FABP4 immunoprecipitation, with IgG immunoprecipitation as negative control; bands cut from a silver-stained 12% SDS-PAGE gel, LC-MS/MS; hits intersected with the top 500 inflammation-related genes of GeneCards.

B1: S100A9 found by IP-mass spectrometry of FABP4 in HEK293T cells (protein, UniProt P06702 1-114)
chain: MTCKMSQLERNIETIINTFHQYSVKLGHPDTLNQGEFKELVRKDLQNFLKKENKNEKVIEHIMEDLDTNADKQLSFEEFIMLMARLTWASHEKMHEGDEGPGHHHKPGLGEGTP
Take B1: the binding entry was “binds”.
